Results on two molecules are retold here after patent publication EP0614662A1, “Use of (2E,4E,6E,10E)-3,7,11,15-tetramethyl-2,4,6,10,14-hexadecapentaenoic acid for the treatment of leukaemia” (Eisai Co., Ltd., priority 1993, dated 1994).

This data set has as its system HL-60. The data set can be described thus: Cytotoxicity on HL-60 (viable cell count, Trypan Blue). Type of data set: cell-based. As to conditions: for LD₅₀/ID₅₀: HL-60, margin of safety. How it is done: After the completion of the incubation, the total cell count was calculated with a Burker-Turk calculation board and the viable cell count was calculated by regarding the cells stained with Trypan Blue as the dead ones. Thus ID₅₀ and LD₅₀ were determined. Further, a cytospin slide was prepared and the morphology of the cells was observed by the May-Giemsa staining method.

Some results come without the dose or concentration used.

`CC1=C(/C=C/C(C)=C/C=C/C(C)=C/C(=O)O)C(C)(C)CCC1` [ATRA, all-trans-retinoic acid, reference compound] came in with an LD₅₀/ID₅₀ of 1.79.

In turn, `CC(C)=CCC/C(C)=C/CC/C(C)=C/C=C/C(C)=C/C(=O)O` [compound (I), (2E,4E,6E,10E)-3,7,11,15-tetramethyl-2,4,6,10,14-hexadecapentaenoic acid] showed an LD₅₀/ID₅₀ of 3.80. In addition, the “margin of safety expressed in the LD₅₀/ID₅₀ ratio, times as high as that of ATRA” value (HL-60, relative to ATRA) was “about 2.1 times”.
